Assay results from PubChem BioAssay (NCATS).
The shares of active, inactive and inconclusive entries below differ from those in the screen. For some assays here: Where the call is inconclusive, the potency comes from a doubtful curve fit. Activity calls are given as the source filed them. Calls follow the shape of the dose curve; as a rule, active = well fitted cell-killing curve with a large enough effect; inconclusive = small, poorly fitted or top-dose-only effect, or effect the other way; inactive = no such curve, though single readings can be large or run the other way.

What was measured:
[1] = Quantitative High-Throughput drug screen in 47 multiple myeloma cell lines against the NCATS MIPE library collection: MOLP8_DSMZ cell viability assay (AID 1918977); settings: MOLP8 myeloma viability, CellTiter-Glo ATP luminescence, 48 h; series mostly up to 45.8 µM; also: nearly all actives have a fitted effect of over 45% in size; also: potency is read from the fitted curve at half-maximal effect;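 as to viability (% of control): 100% = DMSO-only wells and 0% = media-only wells without cells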
Procedure, shortened: (§1)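 ATP-based luminescence (CellTiter-Glo, 5 min RT incubation) quantified surviving cells following two days' treatment with MIPE 4.0 agents at 37 °C, 5% CO2.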

[2] = Quantitative High-Throughput drug screen in 47 multiple myeloma cell lines against the NCATS MIPE library collection: OCIMY1_PLB cell viability assay (AID 1918979); settings: OCI-MY1 myeloma viability, CellTiter-Glo ATP, 48 h; series mostly up to 45.8 µM; also: nearly all actives have a fitted effect of over 35% in size; also: potency is read from the fitted curve at half-maximal effect;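 as to viability: 100% = DMSO-only wells and 0% = cell-free media-only wells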
Procedure, shortened: as §1

[3] = Quantitative High-Throughput drug screen in 47 multiple myeloma cell lines against the NCATS MIPE library collection: L363_DSMZ cell viability assay (AID 1918984); settings: L363 myeloma viability, CellTiter-Glo ATP luminescence, 48 h; viability (% of control): at 45.8 µM (top of the series); also: nearly all actives have a fitted effect of over 40% in size; also: potency is read from the fitted curve at half-maximal effect
Procedure, shortened: as §1

[4] = Quantitative High-Throughput drug screen in 47 multiple myeloma cell lines against the NCATS MIPE library collection: KMS34_JCRB cell viability assay (AID 1918985); settings: KMS34 myeloma viability, CellTiter-Glo ATP luminescence, 48 h; viability, percent of control: at 45.8 µM; also: nearly all actives have a fitted effect of over 40% in size; also: potency is read from the fitted curve at half-maximal effect;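 as to viability, percent of control: 100% = DMSO-only wells and 0% = media-only wells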
Procedure, shortened: as §1

[5] = Quantitative High-Throughput drug screen in 47 multiple myeloma cell lines against the NCATS MIPE library collection: OCIMY7_PLB cell viability assay (AID 1918987); settings: OCI-MY7 myeloma viability, CellTiter-Glo ATP, 48 h; viability (% of DMSO): at 45.8 µM unless noted; also: nearly all actives have a fitted effect of over 65% in size; also: potency is read from the fitted curve at half-maximal effect
Procedure, shortened: as §1

[6] = Quantitative High-Throughput drug screen in 47 multiple myeloma cell lines against the NCATS MIPE library collection: OCIMY5_PLB cell viability assay (AID 1918988); settings: OCI-MY5 myeloma viability, ATP luminescence, 48 h; viability, % of control: at 45.8 µM; also: nearly all actives have a fitted effect of over 65% in size; also: potency is read from the fitted curve at half-maximal effect;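 as to viability, % of control: 100% = DMSO-treated wells and 0% = wells with media alone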
Procedure, shortened: as §1

[7] = Quantitative High-Throughput drug screen in 47 multiple myeloma cell lines against the NCATS MIPE library collection: OPM1_PLB cell viability assay (AID 1918989); settings: CellTiter-Glo, 48 h; viability (% of control): at 45.8 µM; also: nearly all actives have a fitted effect of over 40% in size; also: potency is read from the fitted curve at half-maximal effect;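 as to viability (% of control): 100% = DMSO-only wells and 0% = media-only wells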
Procedure, shortened: as §1

[8] = Quantitative High-Throughput drug screen in 47 multiple myeloma cell lines against the NCATS MIPE library collection: SKMM1_PLB cell viability assay (AID 1919863); settings: SKMM1 myeloma viability, CellTiter-Glo ATP, 48 h; viability: stronger effect = lower value; also: nearly all actives have a fitted effect of over 35% in size; also: potency is read from the fitted curve at half-maximal effect
Procedure, shortened: as §1

[9] = Quantitative High-Throughput drug screen in 47 multiple myeloma cell lines against the NCATS MIPE library collection: U266_ATCC cell viability assay (AID 1919864); settings: U266 myeloma viability, CellTiter-Glo ATP luminescence, 48 h; series mostly up to 45.8 µM; also: nearly all actives have a fitted effect of over 35% in size; also: potency is read from the fitted curve at half-maximal effect;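 as to viability (% of DMSO control): 0% = media-only wells without cells and 100% = DMSO-only wells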
Procedure, shortened: as §1

[10] = Quantitative High-Throughput drug screen in 47 multiple myeloma cell lines against the NCATS MIPE library collection: XG1_PLB cell viability assay (AID 1919866); settings: CellTiter-Glo ATP, 48 h; series mostly up to 45.8 µM; also: nearly all actives have a fitted effect of over 35% in size; also: potency is read from the fitted curve at half-maximal effect
Procedure, shortened: as §1

[11] = Quantitative High-Throughput drug screen in 47 multiple myeloma cell lines against the NCATS MIPE library collection: VP6_DJ cell viability assay (AID 1919867); settings: ATP luminescence, 48 h; viability (% of DMSO): at 45.8 µM; also: nearly all actives have a fitted effect of over 40% in size; also: potency is read from the fitted curve at half-maximal effect;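 as to viability (% of DMSO): 100% = DMSO-only wells and 0% = wells with media alone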
Procedure, shortened: as §1

[12] = Quantitative High-Throughput drug screen in 47 multiple myeloma cell lines against the NCATS MIPE library collection: UTMC2_PLB cell viability assay (AID 1919868); settings: CellTiter-Glo ATP luminescence, 48 h; viability (% of DMSO control): at 45.8 µM; also: potency is read from the fitted curve at half-maximal effect; nearly all actives have a fitted effect of over 55% in size
Procedure, shortened: as §1

[13] = Quantitative High-Throughput drug screen in 47 multiple myeloma cell lines against the NCATS MIPE library collection: PCM6_Riken cell viability assay (AID 1919870); settings: CellTiter-Glo ATP, 48 h; viability (% of control): at 45.8 µM; also: nearly all actives have a fitted effect of over 30% in size; also: potency is read from the fitted curve at half-maximal effect;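 as to viability (% of control): 100% = DMSO-only wells and 0% = media-only wells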
Procedure, shortened: as §1

[14] = Quantitative High-Throughput drug screen in 47 multiple myeloma cell lines against the NCATS MIPE library collection: LP1_DSMZ cell viability assay (AID 1918982); settings: LP1 myeloma viability, CellTiter-Glo ATP luminescence, 48 h; series mostly up to 45.8 µM; also: nearly all actives have a fitted effect of over 35% in size; also: potency is read from the fitted curve at half-maximal effect
Procedure, shortened: as §1

[15] = Quantitative High-Throughput drug screen in 47 multiple myeloma cell lines against the NCATS MIPE library collection: KMS28PE_JCRB cell viability assay (AID 1918983); settings: KMS28PE multiple myeloma viability, CellTiter-Glo ATP, 48 h; series mostly up to 45.8 µM; also: nearly all actives have a fitted effect of over 35% in size; also: potency is read from the fitted curve at half-maximal effect
Procedure, shortened: as §1

[16] = Quantitative High-Throughput drug screen in 47 multiple myeloma cell lines against the NCATS MIPE library collection: PE2_PLB cell viability assay (AID 1919869); settings: PE2_PLB myeloma cells viability, ATP luminescence, 48 h; viability (% of control): at 45.8 µM; also: nearly all actives have a fitted effect of over 35% in size; also: potency is read from the fitted curve at half-maximal effect;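 as to viability (% of control): 100% = DMSO-only wells and 0% = cell-free media-only wells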
Procedure, shortened: as §1

[17] = Quantitative High-Throughput drug screen in 47 multiple myeloma cell lines against the NCATS MIPE library collection: XG6_PLB cell viability assay (AID 1919865); settings: XG6 myeloma viability, CellTiter-Glo ATP luminescence, 48 h; viability (% of control): at 45.8 µM; also: nearly all actives have a fitted effect of over 40% in size; also: potency is read from the fitted curve at half-maximal effect;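 as to viability (% of control): 100% = DMSO-only wells and 0% = media-only wells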
Procedure, shortened: as §1

[18] = Quantitative High-Throughput drug screen in 47 multiple myeloma cell lines against the NCATS MIPE library collection: MM1R_ATCC cell viability assay (AID 1918981); settings: MM1R multiple myeloma cells, CellTiter-Glo viability, 48 h; series mostly up to 45.8 µM; also: nearly all actives have a fitted effect of over 35% in size
Procedure, shortened: as §1

C[N+](C)([O-])CCNc1ccc(NCC[N+](C)(C)[O-])c2c1C(=O)c1c(O)ccc(O)c1C2=O
inconclusive: Potency [1] 2.64 µM [cytotoxic, full curve, poor fit] | Potency [5] 0.743 µM [cytotoxic, full curve, poor fit] | Potency [6] 37.2 µM [cytotoxic, single point] | Potency [7] 0.0662 µM [rising, full curve, poor fit] | Potency [8] 3.32 µM [cytotoxic, full curve, poor fit] | Potency [9] 29.6 µM [cytotoxic, single point] | Potency [10] 26.4 µM [cytotoxic, partial curve, poor fit] | Potency [12] 14.8 µM [cytotoxic, partial curve, poor fit] | Potency [13] 33.2 µM [cytotoxic, single point]
inactive: Potency [2] | Potency [3] | Potency [4] | Potency [11]

O[C@@H](CNC[C@H](O)[C@H]1CCc2cc(F)ccc2O1)[C@@H]1CCc2cc(F)ccc2O1
inconclusive: Potency [1] 16.6 µM [cytotoxic, partial curve] | Potency [2] 18.7 µM [cytotoxic, single point] | Potency [14] 20.9 µM [cytotoxic, partial curve] | Potency [15] 18.7 µM [cytotoxic, partial curve] | Potency [4] 18.7 µM [cytotoxic, partial curve, poor fit] | Potency [5] 33.2 µM [cytotoxic, single point]
active: Potency [3] 16.6 µM | Potency [6] 20.9 µM | Potency [12] 20.9 µM | Potency [16] 26.4 µM

CCOC(=O)C1=C(C)NC2=C(C(=O)CC(C)(C)C2)C1c1ccc(-c2ccccc2)cc1 (stereo not drawn)
active: Potency [1] 16.6 µM | Potency [6] 20.9 µM | Potency [13] 20.9 µM
inconclusive: Potency [2] 20.9 µM [cytotoxic, partial curve] | Potency [14] 37.2 µM [cytotoxic, partial curve, poor fit] | Potency [15] 29.6 µM [cytotoxic, single point] | Potency [3] 1.66 µM [cytotoxic, partial curve, poor fit] | Potency [17] 20.9 µM [cytotoxic, partial curve, poor fit] | Potency [10] 1.66 µM [cytotoxic, full curve] | Potency [11] 20.9 µM [cytotoxic, partial curve, poor fit]

C=Cc1c(C)c2cc3nc(cc4[nH]c(cc5nc(cc1[nH]2)C(C)=C5CCC(=O)O)c(CCC(=O)OC)c4C)[C@@]1(C)C3=CC=C(C(=O)OC)[C@H]1C(=O)OC
active: Potency [1] 2.09 µM | Potency [2] 2.35 µM | Potency [14] 1.05 µM | Potency [3] 0.526 µM

CCn1c(-c2nonc2N)nc2cnc(Oc3cccc(NC(=O)c4ccc(OCCN5CCOCC5)cc4)c3)cc21
inconclusive: Potency [1] 33.2 µM [cytotoxic, single point] | Potency [2] 18.7 µM [cytotoxic, partial curve] | Potency [15] 23.5 µM [cytotoxic, single point] | Potency [4] 20.9 µM [cytotoxic, partial curve, poor fit] | Potency [6] 18.7 µM [cytotoxic, partial curve, poor fit] | Potency [8] 16.6 µM [cytotoxic, partial curve, poor fit] | Potency [9] 18.7 µM [cytotoxic, partial curve, poor fit] | Potency [10] 7.43 µM [cytotoxic, partial curve] | Potency [13] 7.43 µM [cytotoxic, partial curve]
active: Potency [5] 2.35 µM | Potency [7] 16.6 µM | Potency [17] 20.9 µM | Potency [11] 8.33 µM | Potency [12] 0.935 µM

CC1C(=O)OC2C(O)C34C5CC(C(C)(C)C)C36C(OC(=O)C6O)OC4(C(=O)O5)C12O (stereo not drawn)
inactive: Potency [2] | Potency [14] | Potency [5] | Potency [7] | Potency [9] | Potency [16]
inconclusive: Potency [1] 14.8 µM [cytotoxic, partial curve, poor fit] | Potency [3] 0.296 µM [cytotoxic, full curve, poor fit] | Potency [6] 11.8 µM [rising, partial curve, poor fit] | Potency [17] 0.0047 µM [rising, full curve, poor fit] | Potency [10] 20.9 µM [cytotoxic, single point] | Potency [11] 0.0047 µM [rising, full curve, poor fit] | Potency [12] 0.0148 µM [cytotoxic, full curve, poor fit] | Potency [13] 0.0023 µM [rising, full curve, poor fit]
active: Potency [4] 23.5 µM

COc1cc(Nc2ncc(F)c(Nc3ccc4c(n3)N(COP(=O)(O)O)C(=O)C(C)(C)O4)n2)cc(OC)c1OC
active: Potency [3] 2.35 µM | Potency [12] 5.26 µM
inconclusive: Potency [1] 4.69 µM [cytotoxic, partial curve, poor fit] | Potency [2] 20.9 µM [cytotoxic, partial curve] | Potency [14] 20.9 µM [cytotoxic, partial curve, poor fit] | Potency [15] 37.2 µM [cytotoxic, single point] | Potency [8] 3.72 µM [cytotoxic, full curve, poor fit] | Potency [9] 26.4 µM [cytotoxic, single point]

CCOC(=O)N1CCN([N+]([O-])=NOc2ccc([N+](=O)[O-])cc2C#N)CC1
active: Potency [14] 2.64 µM | Potency [15] 1.18 µM | Potency [3] 0.59 µM | Potency [6] 0.833 µM | Potency [12] 0.526 µM | Potency [16] 0.743 µM
inconclusive: Potency [1] 0.743 µM [cytotoxic, full curve] | Potency [2] 1.32 µM [cytotoxic, full curve] | Potency [8] 0.743 µM [cytotoxic, full curve] | Potency [17] 0.935 µM [cytotoxic, full curve]

O=C(O)Cn1nnc(-c2cc(N3CCC(Oc4cc(F)ccc4Br)CC3)no2)n1
inactive: Potency [1] | Potency [18] | Potency [15] | Potency [3] | Potency [7] | viability [8] 126% | Potency [17] | Potency [10] | Potency [11]
inconclusive: Potency [2] 37.2 µM [rising, single point] | Potency [4] 3.32 µM [rising, partial curve] | Potency [5] 37.2 µM [cytotoxic, partial curve, poor fit] | Potency [6] 41.8 µM [rising, single point] | Potency [12] 0.0093 µM [rising, full curve, poor fit]

O=C1NC(=O)C(=Cc2ccc3nccc(-c4ccncc4)c3c2)S1
inconclusive: Potency [14] 0.118 µM [cytotoxic, full curve, poor fit]
active: Potency [1] 0.166 µM | Potency [2] 0.235 µM | Potency [15] 0.372 µM | Potency [5] 0.0662 µM | Potency [9] 0.418 µM | Potency [12] 0.0372 µM

C#C[C@]1(O)CC[C@@H]2[C@@H]3CCc4cc(O)ccc4[C@H]3CC[C@@]21C
inconclusive: Potency [1] 14.8 µM [cytotoxic, partial curve, poor fit] | Potency [2] 37.2 µM [cytotoxic, single point] | Potency [14] 23.5 µM [cytotoxic, partial curve] | Potency [15] 26.4 µM [cytotoxic, single point] | Potency [3] 37.2 µM [cytotoxic, partial curve, poor fit] | Potency [12] 14.8 µM [cytotoxic, partial curve, poor fit]
active: Potency [17] 4.18 µM | Potency [13] 14.8 µM

O=c1[nH]c(=O)n([C@H]2C[C@@H](O)[C@@H](CO)O2)cc1C(F)(F)F
inactive: Potency [14] | Potency [7] | Potency [9]
inconclusive: Potency [1] 18.7 µM [cytotoxic, partial curve, poor fit] | Potency [2] 0.0166 µM [rising, full curve, poor fit] | Potency [3] 1.32 µM [cytotoxic, partial curve, poor fit] | Potency [4] 16.6 µM [cytotoxic, partial curve, poor fit] | Potency [10] 4.69 µM [cytotoxic, partial curve] | Potency [11] 1.18 µM [cytotoxic, full curve, poor fit] | Potency [12] 8.33 µM [cytotoxic, full curve, poor fit] | Potency [13] 9.35 µM [cytotoxic, single point]

NC[C@H]1O[C@H](O[C@H]2[C@@H](O)[C@@H](O[C@H]3O[C@H](CO)[C@@H](O)[C@H](N)[C@@H]3O)[C@H](N)C[C@@H]2N)[C@H](N)C[C@H]1O
inconclusive: Potency [1] 0.0012 µM [cytotoxic, full curve, poor fit] | Potency [5] 0.0469 µM [rising, full curve, poor fit] | Potency [7] 0.001 µM | Potency [8] 0.001 µM [cytotoxic] | Potency [12] 0.0019 µM [rising, full curve, poor fit]
inactive: Potency [2] | Potency [18] | Potency [6] | Potency [9] | Potency [11] | Potency [13]

CC(C)C[C@H](NC(=O)CNC(=O)c1cc(Cl)ccc1Cl)B1OC(=O)CC(CC(=O)O)(C(=O)O)O1 (stereo partly drawn)
active: Potency [1] 0.0469 µM | Potency [2] 0.059 µM | Potency [14] 0.0743 µM | Potency [3] 0.0833 µM | Potency [4] 0.0469 µM | Potency [6] 0.0264 µM | Potency [9] 0.0526 µM | Potency [13] 0.0469 µM
